Experimental data published in patent publication US20240115742A1, “FLUORINATED FIBERS FOR MULTIMODAL 1H AND 19F MRI, ULTRASOUND, FLUORESCENCE DETECTION AND CONFORMATIONAL AND TEMPERATURE DETECTION BY 19F MRS” (New York University, priority 2022, published 2024).
Values joined by “and” are separate entries in the source; they are usually repeats but may differ in a detail not shown here. Equal values may be shown once.

Test: ATR-FTIR peak deconvolution of secondary structure
Format: physicochemical
Experimental: Attenuated Total Reflectance-Fourier Transform Infrared Spectroscopy. Secondary structure of protein fiber variants was confirmed using attenuated total reflectance-Fourier transform infrared (ATR-FTIR) spectroscopy using the Nicolet 6700 Fourier Transform Infrared Spectrometer equipped with a diamond ATR accessory and a mercury cadmium telluride (MCT)-A detector. Spectra were collected for 5 μL of 500 μM protein from 4000-400 cm^−1 with 0.5 cm^−1 increments at room temperature (RT). For CCM bound protein, protein was bound at a final concentration of 500 μM and saturated with CCM as determined by fluorescent spectroscopic drug binding with a final 1% v/v DMSO. Sample spectra were normalized using buffer background and analyzed from 1700-1600 cm^−1 corresponding to the amide I region. Peaks were deconvoluted using Gaussian functions in PeakFit software until the goodness of fit reached r^2≥0.99. Peaks were associated with secondary structure were determined by methods known in the art.
(§1) Attenuated Total Reflectance-Fourier Transform Infrared Spectroscopy. Secondary structure of Q2 protein was confirmed using attenuated total reflectance-Fourier transform infrared (ATR-FTIR) spectroscopy using the Nicolet 6700 Fourier Transform Infrared Spectrometer equipped with a diamond ATR accessory and a mercury cadmium telluride (MCT)-A detector. Spectra were collected for 5 μL of 2 mM protein from 4000-400 cm^−1 with 0.5 cm^−1 increments. Sample spectra were normalized using buffer background and analyzed from 1700-1600 cm^−1 corresponding to the amide I region. Peaks were deconvoluted using Gaussian functions in PeakFit software until the goodness of fit reached r^2>0.99.
as §1, with “of Q2LTF and QLTF” for “of Q2”, “using a” for “using the”, “of 1” for “of 2”, “with 4.0” for “with 0.5”, “reached r^2≥0.99.” for “reached r^2>0.99.”
Attenuated Total Reflectance-Fourier Transform Infrared Spectroscopy. Secondary structure before (solution) and after gelation (gel) was also assessed by peak deconvolution of attenuated total reflectance-Fourier transform infrared (ATR-FTIR) spectra. ATR-FTIR measurements were performed using a Nicolet 6700 Fourier Transform Infrared Spectrometer equipped with a mercury cadmium telluride (MCT)-A detector. Spectra were collected for 5 μL samples of protein at 2 mM from 4000-400 cm^−1 with a 4.0 cm^−1 resolution, normalized, and buffer-subtracted prior to analysis from 1700-1600 cm^−1, corresponding to the amide I region. ATR-FTIR measurements were performed immediately after concentration to 2 mM for solution measurements and after. Peaks were deconvoluted using Gaussian functions in PeakFit software until the goodness of fit reached r^2≥0.99.

Substance: Q: rationally designed pentameric coiled-coil derived from C, SEQ ID NO: 23 (MRGSHHHHHHGSIEGRVKEITFLKNTAPQMLRELQETNAALQDVRELLRQQSKL) [reference compound]
- 3-10 Helix (native): 19.1%
- Turns/Coils (combined, random content) (native): 25.1±10.3%
- Unordered (native): 0.0%
- α-helix (native): 32.8±4.2% and 32.8%
- β-sheet (native): 29.2%
- β-sheet (combined) (native): 42.4 ± 4.9%
- 3-10 Helix (w/CCM): 16.3%
- Turns/Coils (combined) (w/CCM): 31.6 ± 3.8%
- Unordered (w/CCM): 0.0%
- α-helix (w/CCM): 32.9%
- β-sheet (w/CCM): 32.5%
- β-sheet (combined) (w/CCM): 40.3 ± 9.7%

Substance: Q2: coiled-coil protein redesigned from Q for reduced lateral assembly, SEQ ID NO: 11 (MRGSHHHHHHGSIEGRVKELLFLKKTAEQMLEELKETNKALHDVRHLLENQSKL) [Protein Q2]
- 3-10 Helix (Gel, 2 mM): 5.4 % composition
- Antiparallel β-sheet (Gel, 2 mM): 11.3 % composition
- Unordered (Gel, 2 mM): 0.0 % composition
- α-helix (Gel, 2 mM): 51.5 % composition
- β-sheet (Gel, 2 mM): 29.5 % composition
- 3-10 Helix (Solution, 2 mM): 8.8 % composition
- Antiparallel β-sheet (Solution, 2 mM): 7.6 % composition
- Unordered (Solution, 2 mM): 24.1 % composition
- α-helix (Solution, 2 mM): 38.7 % composition
- β-sheet (Solution, 2 mM): 18.7 % composition
- 3-10 Helix (native): 8.4%
- Turns/Coils (combined, random content) (native): 23.7 ± 9.6%
- Unordered (native): 0.0%
- α-helix (native): 50.8±6.0% and 50.8%
- β-sheet (native): 16.3%
- β-sheet (combined) (native): 36.5 ± 6.2%
- change in random coil conformation upon gelation (solution to gel): −27.3%
- change in β-sheet conformation upon gelation (solution to gel): +14.5%
- 3-10 Helix (w/CCM): 16.9%
- Turns/Coils (combined) (w/CCM): 26.7 ± 1.7%
- Unordered (w/CCM): 0.0%
- α-helix (w/CCM): 46.9%
- β-sheet (w/CCM): 33.5%
- β-sheet (combined) (w/CCM): 28.9 ± 13.6%
